Results taken from PubChem BioAssay AID504834 (National Center for Advancing Translational Sciences (NCATS), 2011).
The whole screen tested about 320,000 compounds, of which about 22,000 (6.9%) were called active. Inconclusive results, whose numbers are uncertain, are shown with a selection of clear calls. The call rests on the fitted dose curve; in most records, active means well fitted inhibition curve with a large enough effect; inconclusive means small, poorly fitted or top-dose-only effect, or another doubt; inactive means no such curve, though single readings can be large or run the other way. Where the call is inconclusive, the potency comes from a doubtful curve fit.

assay: Primary qHTS for delayed death inhibitors of the malarial parasite plastid, 96 hour incubation; settings: P. falciparum luciferase reporter growth; series mostly up to 28.7 µM
Summary of the method: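 P. falciparum expressing integrated firefly luciferase, in erythrocytes at 2% hematocrit, 0.05% parasitemia, incubated with compounds 96 h at 37 C, 5% CO2. Growth inhibition read as loss of luminescence; two-generation exposure targets delayed-death apicoplast inhibitors.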
On the % scale 0 is the no-effect control and ±100 the full control effect; potency means the concentration at half of the fitted maximal effect.

Row | SMILES | Potency | activity change, negative = inhibition
1 | Cc1ccc(C(=O)NCC(=O)Nc2ccccc2C(F)(F)F)cc1 | inconclusive: 20.8 µM [inhibitor, partial curve, poor fit] | 
2 | Cc1ccc(S(=O)(=O)N(CCO)Cc2ccccc2)cc1 | inconclusive: 0.117 µM [inhibitor, full curve, poor fit] | 
3 | COc1cc(NC(=O)CN(C)S(=O)(=O)c2ccc3c(c2)CCC(=O)N3)cc(OC)c1 | inconclusive: 10.4 µM [inhibitor, single point] | 
4 | C=CCSC1=NC(=O)/C(=C/c2cccs2)S1 | inactive | 
5 | COc1ccc(-c2nc(CN3CCC(C(=O)NC4CCN(Cc5ccccc5)CC4)CC3)c(C)o2)cc1OC | inconclusive: 4.15 µM [inhibitor, partial curve, poor fit] | 
6 | Cc1ccc(S(=O)(=O)N(C)Cc2ccc(C(=O)N/N=C/c3ccc(OC(F)F)cc3OC(F)F)cc2)cc1 | inconclusive: 14.7 µM [inhibitor, partial curve, poor fit] | 
7 | CC(C)c1ccc(NC2CCCN(C(=O)c3cc(C(C)C)nc(N)n3)C2)cc1 (centres undefined) | active: 14.7 µM | 
8 | CCOC(=O)C(NC(C)=O)(OCc1ccc(F)cc1)C(F)(F)F (centres undefined) | inconclusive: 18.5 µM [inhibitor, single point] | 
9 | Oc1ccccc1-c1nc2c3ccccc3c3ccccc3c2[nH]1 | inconclusive: 18.5 µM [inhibitor, single point] | 
10 | COc1cc(CN2CCC(CO)(Cc3cccc(C(F)(F)F)c3)CC2)ccc1F | active: 4.15 µM | 
11 | COc1ccc(CCC(=O)Nc2cccc(S(=O)(=O)N3CCCC3)c2)cc1OC | inconclusive: 16.5 µM [inhibitor, single point] | 
12 | COc1ccc(C(C(=O)NC(C)(C)C)N(C(=O)CNC(=O)c2cccs2)c2ccc(C)cc2)cc1OC (centres undefined) | inconclusive: 18.5 µM [inhibitor, single point] | 
13 | CC(=O)c1nn(-c2cccc(Br)c2)cc1C(=O)c1ccc(Br)cc1 | inconclusive: 0.415 µM [inhibitor, partial curve, poor fit] | 
14 | CCOC(=O)Cc1cc(=O)n2[nH]c(C)c(-c3ccc(Cl)cc3)c2n1 | inconclusive: 0.415 µM [inhibitor, partial curve, poor fit] | 
15 | CC(=O)Nc1ccc(SC[C@H](CC(C)C)N2CCN(CC(C)C)CCC2=O)cc1 | inconclusive: 18.5 µM [inhibitor, single point] | 
16 | O=C(NCCOc1ccccc1)c1cc(S(=O)(=O)N2CCOCC2)ccc1F | inconclusive: 10.4 µM [inhibitor, partial curve] | 
17 | O=C(c1ccc(F)cc1Cl)N(c1ccccn1)C1CCCCC1 | inactive | 
18 | O=P(C(=Nc1ccc(Cl)cc1)N1CCOCC1)(N1CCOCC1)N1CCOCC1 | inconclusive: 10.4 µM [inhibitor, partial curve, poor fit] | 
19 | Cn1cccc1/C=N/NC(=O)Cc1cccs1 | inactive | 
20 | NS(=O)(=O)c1c(Sc2ccccc2C(=O)O)ccc2ccccc12 | inactive | 
21 | O=c1c(-c2ccc(Oc3ccccc3)cc2)[n+]([O-])c2ccccc2n1OCc1ccccn1 | inconclusive: 13.1 µM [inhibitor, partial curve, poor fit] | 
22 | C=CCOC(=O)C1=C(C)Nc2nnnn2C1c1cccs1 (centres undefined) | inconclusive: 4.15 µM [inhibitor, full curve, poor fit] | 

Part of the list above in order of formula weight, smallest number first.
Row | SMILES | Potency | activity change, negative = inhibition
4 | C=CCSC1=NC(=O)/C(=C/c2cccs2)S1 | inactive | 
22 | C=CCOC(=O)C1=C(C)Nc2nnnn2C1c1cccs1 (centres undefined) | inconclusive: 4.15 µM [inhibitor, full curve, poor fit] | 
2 | Cc1ccc(S(=O)(=O)N(CCO)Cc2ccccc2)cc1 | inconclusive: 0.117 µM [inhibitor, full curve, poor fit] | 
9 | Oc1ccccc1-c1nc2c3ccccc3c3ccccc3c2[nH]1 | inconclusive: 18.5 µM [inhibitor, single point] | 
7 | CC(C)c1ccc(NC2CCCN(C(=O)c3cc(C(C)C)nc(N)n3)C2)cc1 (centres undefined) | active: 14.7 µM | 
16 | O=C(NCCOc1ccccc1)c1cc(S(=O)(=O)N2CCOCC2)ccc1F | inconclusive: 10.4 µM [inhibitor, partial curve] | 
10 | COc1cc(CN2CCC(CO)(Cc3cccc(C(F)(F)F)c3)CC2)ccc1F | active: 4.15 µM | 
15 | CC(=O)Nc1ccc(SC[C@H](CC(C)C)N2CCN(CC(C)C)CCC2=O)cc1 | inconclusive: 18.5 µM [inhibitor, single point] | 
21 | O=c1c(-c2ccc(Oc3ccccc3)cc2)[n+]([O-])c2ccccc2n1OCc1ccccn1 | inconclusive: 13.1 µM [inhibitor, partial curve, poor fit] | 
18 | O=P(C(=Nc1ccc(Cl)cc1)N1CCOCC1)(N1CCOCC1)N1CCOCC1 | inconclusive: 10.4 µM [inhibitor, partial curve, poor fit] | 
13 | CC(=O)c1nn(-c2cccc(Br)c2)cc1C(=O)c1ccc(Br)cc1 | inconclusive: 0.415 µM [inhibitor, partial curve, poor fit] | 
12 | COc1ccc(C(C(=O)NC(C)(C)C)N(C(=O)CNC(=O)c2cccs2)c2ccc(C)cc2)cc1OC (centres undefined) | inconclusive: 18.5 µM [inhibitor, single point] | 
6 | Cc1ccc(S(=O)(=O)N(C)Cc2ccc(C(=O)N/N=C/c3ccc(OC(F)F)cc3OC(F)F)cc2)cc1 | inconclusive: 14.7 µM [inhibitor, partial curve, poor fit] | 

(cont.)

Row | SMILES | Potency | activity change, negative = inhibition
23 | CCOC(=O)C1(CC2CCCCO2)CCN(S(=O)(=O)c2cccc(F)c2)CC1 (centres undefined) | inconclusive: 11.7 µM [inhibitor, single point] | 
24 | CCc1nnc(NC(=O)CN2CCN(Cc3ccc(C)cc3)CC2)s1 | active: 9.28 µM | 
25 | CC(C)C(=O)N1CCN(c2ccccc2NC(=O)Cc2ccc(Cl)cc2)CC1 |  | inactive: -3.2% [at 5.75 µM]
26 | COC(=O)c1ccc2c(c1)nc(C)n2CCO | inconclusive: 9.28 µM [inhibitor, single point] | 
27 | COC(=O)c1sc(NC(=O)Cc2cccs2)nc1C | inconclusive: 13.1 µM [inhibitor, single point] | 
28 | CCN(CC)CCC(O)(c1ccccc1)C1CCCCC1 (centres undefined) | inactive | 
29 | CCCCn1c(N)c(N(CCOC)C(=O)c2ccc(C)o2)c(=O)[nH]c1=O | inactive | 
30 | O=C(CCSc1ccc(Cl)cc1)N1CCCCCC1 | active: 1.04 µM | 
31 | C=CCNC(=S)Nc1sc2c(c1C(=O)OCC)CCN(C(=O)OCC)C2 | inconclusive: 0.415 µM [inhibitor, full curve, poor fit] | 
32 | Cc1ccc(CNC(=O)COC(=O)c2ccc(S(=O)(=O)N3CCCCCC3)cc2)cc1 | inactive | 
33 | COc1ccc(NC(=O)Nc2nnc(C(C)C)s2)cc1 | inactive | 
34 | CCN(c1cccc(C)c1)S(=O)(=O)c1cc2c3c(c1)CCC(=O)N3CCC2 | inconclusive: 18.5 µM [inhibitor, single point] | 
35 | O=C1CS/C(=N/N=C/c2cccs2)N1 | inactive | 
36 | COc1ccc(C(=O)CN2C(=O)c3ccccc3C2=O)cc1 | inactive | 
37 | C1CCc2c(nnc3c2-c2nonc2CC3)C1 | active: 2.08 µM | 
38 | O=C(CSc1nc2ccccc2n1S(=O)(=O)c1ccccc1)N1CCCC1 | inconclusive: 10.4 µM [inhibitor, partial curve, poor fit] | 
39 | COc1ccc(C2C3=C(CC(C)(C)CC3=O)N(C)C3=C2C(=O)CC(C)(C)C3)cc1 | inconclusive: 9.28 µM [inhibitor, partial curve, poor fit] | 
40 | CN(Cc1nccs1)C(=O)c1ccc(OC2CCN(Cc3ccccn3)CC2)cc1 | inconclusive: 9.28 µM [inhibitor, partial curve, poor fit] | 
41 | Cc1cccc(NS(=O)(=O)c2ccc3c(c2)NC(=O)CC(=O)N3)c1 | inconclusive: 4.15 µM [inhibitor, partial curve, poor fit] | 
42 | O=C(Cc1cccc2ccccc12)N/N=C/c1ccncc1 | active: 10.4 µM | 
43 | O=C(NCc1ccc(Cl)cc1)C(=O)NCC1CCCN1S(=O)(=O)c1cccs1 (centres undefined) | inconclusive: 9.28 µM [inhibitor, single point] | 
44 | O=C(NCc1ccc(F)cc1)C1CCN(c2cnccn2)CC1 | inactive | 
